The target in test [1] is T1, TMEM132A on human colorectal cancer cell line DLD-1 (endogenous) (human) (UniProt Q24JP5).
T1 sequence (looked up): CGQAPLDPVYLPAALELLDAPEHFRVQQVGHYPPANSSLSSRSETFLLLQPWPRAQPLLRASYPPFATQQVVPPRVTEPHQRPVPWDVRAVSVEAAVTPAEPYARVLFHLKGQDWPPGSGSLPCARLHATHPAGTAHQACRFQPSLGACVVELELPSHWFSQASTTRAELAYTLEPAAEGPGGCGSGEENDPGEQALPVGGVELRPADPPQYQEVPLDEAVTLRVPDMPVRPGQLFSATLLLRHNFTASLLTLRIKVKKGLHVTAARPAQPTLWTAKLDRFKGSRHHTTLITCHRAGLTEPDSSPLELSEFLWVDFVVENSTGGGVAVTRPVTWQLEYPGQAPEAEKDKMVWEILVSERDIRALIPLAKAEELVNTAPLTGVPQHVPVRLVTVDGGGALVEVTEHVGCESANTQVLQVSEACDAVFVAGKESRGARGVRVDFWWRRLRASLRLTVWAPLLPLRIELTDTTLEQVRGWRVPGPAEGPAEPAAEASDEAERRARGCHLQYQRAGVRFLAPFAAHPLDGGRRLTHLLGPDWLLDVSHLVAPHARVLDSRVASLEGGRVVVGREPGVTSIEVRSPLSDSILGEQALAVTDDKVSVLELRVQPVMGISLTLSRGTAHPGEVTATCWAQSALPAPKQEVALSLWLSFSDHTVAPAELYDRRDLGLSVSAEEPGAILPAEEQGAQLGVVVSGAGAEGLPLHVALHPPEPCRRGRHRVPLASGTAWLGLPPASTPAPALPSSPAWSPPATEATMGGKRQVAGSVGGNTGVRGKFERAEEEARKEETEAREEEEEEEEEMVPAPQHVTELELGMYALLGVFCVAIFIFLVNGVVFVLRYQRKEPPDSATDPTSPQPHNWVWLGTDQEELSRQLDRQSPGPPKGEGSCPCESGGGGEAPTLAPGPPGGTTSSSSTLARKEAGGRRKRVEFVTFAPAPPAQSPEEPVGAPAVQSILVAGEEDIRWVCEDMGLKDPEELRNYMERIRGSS
Description: flow cytometry, hybridoma culture supernatant (selection). Background: In flow cytometry, cells or beads pass a laser one at a time.

Test [2] has as its target T2, TMEM132A forcibly expressed on DLD-1 cells (TMEM132A gene, Genbank Accession No.: NM_017870.3, with a Flag sequence) (human) (UniProt Q24JP5).
T2 sequence (looked up): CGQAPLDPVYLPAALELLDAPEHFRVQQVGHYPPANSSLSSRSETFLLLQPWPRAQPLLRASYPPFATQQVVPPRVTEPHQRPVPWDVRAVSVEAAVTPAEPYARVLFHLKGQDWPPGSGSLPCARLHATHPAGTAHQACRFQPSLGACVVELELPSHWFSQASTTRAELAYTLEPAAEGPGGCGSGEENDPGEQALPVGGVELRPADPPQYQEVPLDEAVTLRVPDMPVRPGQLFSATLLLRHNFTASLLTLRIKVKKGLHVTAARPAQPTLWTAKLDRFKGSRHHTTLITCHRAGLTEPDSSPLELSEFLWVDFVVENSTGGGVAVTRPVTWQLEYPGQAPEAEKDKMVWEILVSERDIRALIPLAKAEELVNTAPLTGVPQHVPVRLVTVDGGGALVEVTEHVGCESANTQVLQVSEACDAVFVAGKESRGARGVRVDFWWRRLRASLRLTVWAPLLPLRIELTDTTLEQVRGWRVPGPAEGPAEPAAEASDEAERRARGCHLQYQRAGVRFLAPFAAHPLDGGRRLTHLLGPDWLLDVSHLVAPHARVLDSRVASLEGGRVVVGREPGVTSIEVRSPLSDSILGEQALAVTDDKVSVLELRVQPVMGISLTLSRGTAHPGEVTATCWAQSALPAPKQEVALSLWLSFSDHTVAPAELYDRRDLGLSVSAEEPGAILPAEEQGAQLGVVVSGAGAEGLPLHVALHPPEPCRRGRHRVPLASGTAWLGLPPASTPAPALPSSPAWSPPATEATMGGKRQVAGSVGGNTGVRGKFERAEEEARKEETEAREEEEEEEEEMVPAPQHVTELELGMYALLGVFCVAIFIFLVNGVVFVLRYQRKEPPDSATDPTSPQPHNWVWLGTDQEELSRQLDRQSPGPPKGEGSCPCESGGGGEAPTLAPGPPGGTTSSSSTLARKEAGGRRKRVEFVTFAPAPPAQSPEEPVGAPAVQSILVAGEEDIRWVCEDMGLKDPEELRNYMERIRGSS
The test is described as above.

No constants are given. Whether binding was seen depends on the method and setting. Some results given as binding are weak or reduced against the parent protein; the word gives no strength. For some assays here: Where a sequence is shown, tags or fusion partners need not be part of it.

B1: T6-1475 antibody (antibody, V domains shown)
VH: DVQLQESGPGLVKPSQSLSLTCSVTGYSITSDYYWNWIRQFPGNKLEWMGYIRYDGYNAYNPSLKSRISITRDTSKNQFLLKLKSVTTEDTATYFCARNDYDGYYFDNWGQGTTLTVS
VL: DIVMSQSPSSLAVSVGEKVTMSCKSSQSLLYSTNQKNYLAWYQQKPGQSPQLLIYWASTRESGVPDRFTGSGSGTDFTLTISSVSAEDLAVYYCQQYYTNPYTFGGGAKLEIK
B1: the binding result in test [1] and in test [2] was “binds” throughout.

The values above are taken from US20190225704A1.
